Test system: calvariae (bone organ culture system of a mouse)
Test: Bone organ culture system of mouse calvariae, staining and confocal laser scanning microscopy
Format: cell-based
Method: Using the bone organ culture system, what kind of effects MPMBP has on production of the bone matrix was studied. From 3-6 day old mice, calvariae were collected aseptically. These were cultured using the Stern and Krieger method (Calcif Tissue hit 1983; 35: 172-17) with DMEM (10% bovine serum supplementation, no supplementation of heparin, supplementation or no supplementation of LPS 10 μg/ml) for 48 hours. After completion of culturing, with the method described by Suzuki, Takeyama et al (J Histochem Cytochem 2005; 53: 1525-1537), a double staining of the type I collagen and alkaline phosphatase (FIG. 6 and FIG. 8), a double staining of the type I collagen and alizarin red (FIG. 7), and an immunohistochemical staining using the type I collagen (FIG. 9) were performed, and using a confocal laser scanning microscope, they were observed.
The upper panels are Nomarski differential interference contrast images of the bone surface. The middle panels are images of the bone surface after the double staining of the type I collagen and alkaline phosphatase was performed, and the lower panels are images of the bone section after the double staining of the type I collagen and alkaline phosphatase was performed, respectively. […]

NCCCC(O)(P(=O)(O)O)P(=O)(O)O [alendronate, reference compound]
concentration indicating the same level of the inhibitory action of the bone resorption in the bone organ culture system: 2.0 µM
